Data from patent publication US20080292576A1, “METHOD FOR IDENTIFYING HAIR CONDITIONER-RESISTANT HAIR-BINDING PEPTIDES AND HAIR BENEFIT AGENTS THEREFROM” (E.I. du Pont de Nemours and Co., priority 2005, published 2008).

Experiment: Biopanning of phage display peptide libraries against hair with undiluted hair conditioner incubation
Assay type: binding, human
Conditions: number of identical sequences out of 95 random sequenced clones after the third biopanning round; undiluted Dove Extra Volume Conditioner
Protocol: A sample containing approximately 4×10^10 pfu of the phage from the library of interest was used in each experiment. The sample of the phage library was first pretreated to remove skin and plastic-binding clones. To remove skin-binding clones, the sample of the phage library was incubated for 1 h at room temperature with a sample of pig skin in a unique pig skin-bottom 96-well apparatus, which was created by applying one layer of Parafilm under the top 96-well block of a Minifold I Dot-Blot System (Schleicher & Schuell, Inc., Keene, N.H.), adding a layer of hairless pig skin on top of the Parafilm® cover, and then tightening the apparatus. The pig skin was purchased from a local supermarket and stored at −80° C. Before use, the skin was placed in deionized water to thaw, and then blotted dry using a paper towel. The surface of the skin was wiped with 90% isopropanol, and then rinsed with deionized water. After exposure to the pig skin, the phage sample was transferred to a polystyrene, 6-well cell culture cluster (Corning Inc., Acton, Mass.; Cat. No. 3526) and incubated for 1 h at room temperature to remove plastic-binding clones.
The hair samples used were 6-inch (15 cm) long pieces of medium brown human hairs, obtained from International Hair Importers and Products (Bellerose, N.Y.). The hairs were placed in 90% isopropanol for 30 min at room temperature and then washed 5 times for 10 min each with deionized water. The hairs were air-dried overnight at room temperature. The hairs were cut to a length of 1 cm and 10-20 hairs were placed into a microcentrifuge tube.
The phage sample, pretreated as described above to remove skin and plastic-binding clones, was added to the tube containing the hair sample and the mixture was incubated at room temperature for 1 h. The phage solution was removed and the hair sample was incubated in undiluted hair conditioner (Dove® Extra Volume Conditioner; Unilever, obtained from a local supermarket) for 5 min at room temperature. The hairs were then washed six times with TBST-0.5% buffer. After the washes, the hairs were transferred to a new tube, elution buffer, consisting of 1 mg/mL BSA in 0.2 M glycine-HCl, pH 2.2, was added, and the hair was incubated for 10 min. Then, neutralization buffer consisting of 1 M Tris-HCl, pH 9.2, was added to the tube. The phages that were eluted and those still bound to the hairs were amplified by adding fresh host cells (E. coli ER2338). The amplified and isolated phage was contacted with a fresh hair sample and the biopanning procedure was repeated two more times for each library.
After the third biopanning round, random single phage clones were selected and single plaque lysates were prepared following the manufacture's instructions (New England Biolabs) and the single stranded phage genomic DNA was purified using the QIAprep Spin M13 Kit (Qiagen; Valencia, Calif.) and sequenced at the DuPont Sequencing Facility using −96 gill sequencing primer (5′-[…]-3′), given as SEQ ID NO:7. […] The amino acid sequences of the hair conditioner-resistant, hair-binding phage-peptides, identified from the three phage libraries after three biopanning rounds, are given in Table 1.

| Sequence | Frequency |
| --- | --- |
| THSTHNHGSPRHTNADAGNP (Hair conditioner-resistant hair-binding peptide) [HCP.1] | 39 |
| STLHKYKSQDPTPHH (Hair conditioner-resistant hair-binding peptide) [HCP.6] | 17 |
| HHGTHHNATKQKNHV (Hair conditioner-resistant hair-binding peptide) [HCP.5] | 36 |
| QQHKVHHQNPDRSTQDAHHS (Hair conditioner-resistant hair-binding peptide) [HCP.2] | 15 |
| SVSVGMKPSPRP (Hair conditioner-resistant hair-binding peptide) [HCP.9] | 16 |
